Consider 24 compounds from PubChem BioAssay AID256 (DTP/NCI, 2004).

The list shows only some results of the screen, not a fair sample: it gathers tests that were run many times, whatever their T/C, doses with no T/C, and many T/C values between a quarter and a half above the control. Further doses and runs are listed elsewhere. T/C: endpoint of the treated group in % of that of the vehicle group. Some doses have a count of surviving animals in place of a T/C: the source files T/C as zero there, which appears to mark a toxic dose or a test without result, not a measured value. Some doses without a T/C left all or most animals alive at the check, yet need not have been tolerated: the source hardly ever lists a survival T/C far under the control, and the zero likely stands for such cases as well. Survivors were counted at the toxicity check, usually on the fifth day, unless a day is given; later deaths do not show. Schedules are NCI's codes, read here as Q, the interval in days (D) or hours (H), X, the number of doses. Some schedule codes hold Z or #, which are not explained here. Where survival is the endpoint, the PubChem record calls one and a half times the control and up active, and a quarter to a half above the control has no call in these data; cut-offs in other NCI protocols can differ. Some entries hold several experiments; the values are given in rising order.

The test system of the test is CD2F1 mice, L1210 leukemia ip, survival T/C. As to the kind of experiment: NCI In Vivo Anticancer Drug Screen. Data for tumor model L1210 Leukemia (intraperitoneal) in CD2F1 (CDF1) mice. As to conditions: higher T/C = longer survival. The essentials:
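Activity against a transplanted murine tumor was judged by comparing the compound group with a vehicle group. The outcome in the treated animals was divided by that in the controls.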

The mark [1] stands for this setting: T/C endpoint: mean survival time, dose: 40.0 mg/kg/injection, schedule: Q01DX001 (ip), vehicle: saline.
[2] abbreviates: T/C endpoint: mean survival time, dose: 80.0 mg/kg/injection, schedule: Q01DX001 (ip), vehicle: saline.

On to `O=P(NCCCO)(OCc1ccccc1)N(CCCl)CCCl` (stereo not drawn), for which the T/C reads like this: (T/C endpoint: mean survival time, dose: 490.0 mg/kg/injection, schedule: Q01DX001 (ip), vehicle: other) 128 % of control; (T/C endpoint: mean survival time, dose: 500.0 mg/kg/injection, schedule: Q01DX001 (ip), vehicle: DMSO) 134 % of control; (T/C endpoint: mean survival time, dose: 700.0 mg/kg/injection, schedule: Q01DX001 (ip), vehicle: other) 147 % of control. The survivor count (T/C endpoint: mean survival time, dose: 1428.0 mg/kg/injection, schedule: Q01DX001 (ip), vehicle: other) is reported as 2 of 6.

On to `NNc1n[nH]c(=S)n1N`, for which the survivor count is recorded as 2 of 6 (T/C endpoint: mean survival time, dose: 50.0 mg/kg/injection, schedule: Q01DX009 (ip), vehicle: saline with Tween-80) and 1 of 6 (T/C endpoint: mean survival time, dose: 100.0 mg/kg/injection, schedule: Q01DX009 (ip), vehicle: saline with Tween-80).

In the case of `c1nc(Sc2ncnc3nc[nH]c23)c2[nH]cnc2n1`, the T/C (T/C endpoint: mean survival time, dose: 150.0 mg/kg/injection, schedule: Q01DX009 (ip), vehicle: saline with Tween-80) was 138 % of control.

In the case of `NCCNCCNCc1ccccc1`, for the setting “T/C endpoint: mean survival time, dose: 400.0 mg/kg/injection, schedule: Q01DX009 (ip), vehicle: saline”, the survivor count is 0 of 6.

On to `O=c1[nH]c(=O)n(CCCO)cc1F`, for which, where the note is “T/C endpoint: mean survival time, dose: 100.0 mg/kg/injection, schedule: Q01DX005 (ip), vehicle: water”, the T/C was 132 and 146 % of control. For the same compound, the survivor count runs as follows: (T/C endpoint: mean survival time, dose: 200.0 mg/kg/injection, schedule: Q01DX005 (ip), vehicle: water) 4 of 6; (T/C endpoint: mean survival time, dose: 400.0 mg/kg/injection, schedule: Q01DX005 (ip), vehicle: water) 0 of 6.

As to `C1CNCCNCCNCCN1`, the survivor count (T/C endpoint: mean survival time, dose: 200.0 mg/kg/injection, schedule: Q01DX009 (ip), vehicle: water) is recorded as 0 of 6.

Turning to `CN=C(NC)c1ccc(NC(=O)c2ccc(C(=O)Nc3ccc(C(=NC)NC)cc3)c(N)c2)cc1`, the survivor count is 1 of 6 (T/C endpoint: mean survival time, dose: 72.0 mg/kg/injection, schedule: Q01DX Z (ip), vehicle: water) and 0 of 6 (T/C endpoint: mean survival time, dose: 144.0 mg/kg/injection, schedule: Q01DX Z (ip), vehicle: water).

Regarding `CC(C)(C)[Si](C)(C)Oc1ncc(F)c(O[Si](C)(C)C(C)(C)C)n1`, the survivor count (T/C endpoint: mean survival time, dose: 40.0 mg/kg/injection, schedule: Q01DX009 (ip), vehicle: distilled water + Tween-80) is listed as 3 of 6 and the survivor count (T/C endpoint: mean survival time, dose: 80.0 mg/kg/injection, schedule: Q01DX009 (ip), vehicle: distilled water + Tween-80) is given as 4 of 6.

`CC1=NCCc2ccccc21`: the survivor count (T/C endpoint: mean survival time, dose: 50.0 mg/kg/injection, schedule: Q04DX003 (ip), vehicle: saline) is on record as 0 of 6.

On to `O=c1[nH]c2c(ncn2C2OC3COP(=O)(O)OC3C2O)c2nccn12` (stereo not drawn), for which the survivor count (T/C endpoint: mean survival time, dose: 200.0 mg/kg/injection, schedule: Q01DX005 (ip), vehicle: distilled water + Tween-80) is 0 of 4.

In the case of `CCOC(=O)NOP(=O)(N1CC1)N1CC1`, the T/C (T/C endpoint: mean survival time, dose: 25.0 mg/kg/injection, schedule: Q04DX002 (ip), vehicle: saline with Tween-80) is 128 % of control.

For the compound `CC#CC#CC(=O)c1ccccc1`, the survivor count by setting is: (T/C endpoint: mean survival time, dose: 20.0 mg/kg/injection, schedule: Q01DX001 (ip), vehicle: saline) 2 of 6; under setting [1], 0 of 6; under setting [2], 0 of 6.

As for `NC1CCCCC1N.O=C1C=CC(=C(c2ccc(O)cc2)c2ccccc2S(=O)(=O)[O-])C=C1.O=[N+]([O-])[O-].[Pt+4]`, for the setting “T/C endpoint: median survival time, dose: 0.78 mg/kg/injection, schedule: Q04DX003 (ip), vehicle: saline”, the T/C was 137 % of control. The survivor count runs as follows: (T/C endpoint: median survival time, dose: 12.5 mg/kg/injection, schedule: Q04DX003 (ip), vehicle: saline with Tween-80) 6 of 6; (T/C endpoint: median survival time, dose: 25.0 mg/kg/injection, schedule: Q04DX003 (ip), vehicle: saline with Tween-80) 6 of 6; (T/C endpoint: median survival time, dose: 25.0 mg/kg/injection, schedule: Q04DX003 (ip), vehicle: saline) 6 of 6; (T/C endpoint: median survival time, dose: 50.0 mg/kg/injection, schedule: Q04DX003 (ip), vehicle: saline with Tween-80) 4 of 6; (T/C endpoint: median survival time, dose: 100.0 mg/kg/injection, schedule: Q04DX003 (ip), vehicle: saline with Tween-80) 2 of 6; (T/C endpoint: median survival time, dose: 200.0 mg/kg/injection, schedule: Q04DX003 (ip), vehicle: saline with Tween-80) 0 of 6.

On to `CCOC(=O)/C=C1\NC(=O)N(CCCN2C(=O)N/C(=C\C(=O)OCC)C2=O)C1=O`, for which the survivor count (T/C endpoint: mean survival time, dose: 12.5 mg/kg/injection, schedule: Q01DX009 (ip), vehicle: saline with Tween-80) was 3 of 3 and the survivor count (T/C endpoint: mean survival time, dose: 25.0 mg/kg/injection, schedule: Q01DX009 (ip), vehicle: saline with Tween-80) is 3 of 3.

`Cc1cc2[nH]cnc2cc1Cl`: where the note is “T/C endpoint: mean survival time, dose: 200.0 mg/kg/injection, schedule: Q01DX009 (ip), vehicle: saline”, the survivor count was 1 of 3.

For the compound `CC(C)OC(=O)c1cc([N+](=O)[O-])cc([N+](=O)[O-])c1Sc1ncnc2nc[nH]c12`, the T/C reads like this: (T/C endpoint: mean survival time, dose: 5.0 mg/kg/injection, schedule: Q01DX005 (ip), vehicle: other) 133 % of control; (T/C endpoint: mean survival time, dose: 9.4 mg/kg/injection, schedule: Q01DX005 (ip), vehicle: other) 138 % of control; (T/C endpoint: mean survival time, dose: 10.0 mg/kg/injection, schedule: Q01DX005 (ip), vehicle: other) 125 % of control. Besides, the survivor count is listed as 2 of 3 (T/C endpoint: mean survival time, dose: 37.5 mg/kg/injection, schedule: Q01DX005 (ip), vehicle: other); 1 of 3 (T/C endpoint: mean survival time, dose: 75.0 mg/kg/injection, schedule: Q01DX005 (ip), vehicle: other); 0 of 3 (T/C endpoint: mean survival time, dose: 150.0 mg/kg/injection, schedule: Q01DX005 (ip), vehicle: other).

`CCCCCCCCCC(=O)N1CC[N+](C)(C)CC1`: the survivor count reads like this: under setting [1], 0 of 6; (T/C endpoint: mean survival time, dose: 75.0 mg/kg/injection, schedule: Q01DX001 (ip), vehicle: saline) 0 of 6; under setting [2], 0 of 6; (T/C endpoint: mean survival time, dose: 150.0 mg/kg/injection, schedule: Q01DX001 (ip), vehicle: saline) 0 of 6; (T/C endpoint: mean survival time, dose: 300.0 mg/kg/injection, schedule: Q01DX001 (ip), vehicle: saline) 0 of 6.

As to `CC(=O)Nc1nc(Br)c2ccccc2c1-c1ccc(N(CCCl)CCCl)cc1`, the survivor count (T/C endpoint: mean survival time, dose: 50.0 mg/kg/injection, schedule: Q04DX003 (ip), vehicle: DMSO) was 4 of 6.

`CN(C)C(=O)OCC[N+](C)(C)CCCCCCCCCC[N+](C)(C)CCOC(=O)N(C)C`: the survivor count (T/C endpoint: mean survival time, dose: 5.0 mg/kg/injection, schedule: Q04DX003 (ip), vehicle: saline) is 4 of 6.

Turning to `CS(=O)(=O)OCCN(CCOS(C)(=O)=O)c1cccc(F)c1`, the survivor count is, setting by setting: (T/C endpoint: mean survival time, dose: 178.0 mg/kg/injection, schedule: Q01DX001 (ip), vehicle: saline) 0 of 6; (T/C endpoint: mean survival time, dose: 267.0 mg/kg/injection, schedule: Q01DX001 (ip), vehicle: saline) 2 of 6; (T/C endpoint: mean survival time, dose: 400.0 mg/kg/injection, schedule: Q01DX001 (ip), vehicle: saline) 1 of 6; (T/C endpoint: mean survival time, dose: 600.0 mg/kg/injection, schedule: Q01DX001 (ip), vehicle: saline) 1 of 6.

Consider `Cc1ccc(S(=O)(=O)OCC2OC3(COS(=O)(=O)c4ccc(C)cc4)OC(C)(C)OC3C2O)cc1` (stereo not drawn), for which, for the setting “T/C endpoint: mean survival time, dose: 400.0 mg/kg/injection, schedule: Q04DX003 (ip), vehicle: saline with Tween-80”, the survivor count is recorded as 5 of 6.

With `[Cl][Hg][c]1ccco1`, the survivor count reads like this: (T/C endpoint: mean survival time, dose: 10.0 mg/kg/injection, schedule: Q01DX001 (ip), vehicle: Klucel (hydroxypropylcellulose) (HPC)) 1 of 6; (T/C endpoint: mean survival time, dose: 20.0 mg/kg/injection, schedule: Q01DX001 (ip), vehicle: Klucel (hydroxypropylcellulose) (HPC)) 0 of 6; (T/C endpoint: mean survival time, dose: 40.0 mg/kg/injection, schedule: Q01DX001 (ip), vehicle: Klucel (hydroxypropylcellulose) (HPC)) 0 of 6.

In the case of `CCC[CH2][Sn]1([CH2]CCC)[O]C2C(CO)OC(n3cnc4c(N)ncnc43)C2[O]1` (stereo not drawn), the survivor count is reported as 4 of 6 (T/C endpoint: mean survival time, dose: 6.25 mg/kg/injection, schedule: Q01DX005 (ip), vehicle: other); 1 of 6 (T/C endpoint: mean survival time, dose: 12.5 mg/kg/injection, schedule: Q01DX005 (ip), vehicle: other); 0 of 6 (T/C endpoint: mean survival time, dose: 25.0 mg/kg/injection, schedule: Q01DX005 (ip), vehicle: other).

For the compound `c1ccc(C[As+](c2ccccc2)(c2ccccc2)c2ccccc2)cc1`, the survivor count is 1 of 3 (T/C endpoint: mean survival time, dose: 50.0 mg/kg/injection, schedule: Q04DX002 (ip), vehicle: saline with Tween-80) and 0 of 3 (T/C endpoint: mean survival time, dose: 100.0 mg/kg/injection, schedule: Q04DX002 (ip), vehicle: saline with Tween-80).
